In PubChem BioAssay AID485353 (National Center for Advancing Translational Sciences (NCATS), 2010):
Screen size: about 330,000 compounds; about 610 (0.18%) were called active. Inconclusive results, whose numbers are uncertain, are shown with a selection of clear calls. Calls follow the shape of the full dose curve. Where the call is inconclusive, the potency comes from a doubtful curve fit.

Assay: qHTS of Yeast-based Assay for SARS-CoV PLP; also: nearly all actives have a fitted effect of over 55% in size
Details: S. cerevisiae expressing SARS-CoV PLpro; Potency: growth rescue; series mostly up to 32.9 µM
Potency is read from the fitted curve at half-maximal effect.

| SMILES | Potency |
| --- | --- |
| Cc1ccc(-n2c(C)cc(C(=O)OCC(=O)N(CC(C)C)C3CCS(=O)(=O)C3)c2C)cc1 (configuration not stated) | inactive |
| C/C(=N\NC(=S)NC(C)C)c1cccc([N+](=O)[O-])c1 | inconclusive: 6.31 µM [activator, partial curve] |
| CCOC(=O)c1[nH]cnc1C(=O)N1CCN(C(=O)OC(C)(C)C)CC1 | inconclusive: 3.55 µM [activator, single point] |
| CC(C)(C)OC(=O)[C@H](Cc1ccccc1)NC(=O)c1nc[nH]c1C(=O)NCCCCCN | inconclusive: 3.55 µM [activator, single point] |
| O=C(NCc1ccccc1CN1CCCC1)c1cc2ccccc2o1 | inactive |
| COc1cccc(C2=NOC(C(=O)NCc3ccccn3)C2)c1 (configuration not stated) | inconclusive: 11.2 µM [activator, partial curve] |
| COc1ccc(CNC(=O)C2CCN(S(=O)(=O)c3cccc4nsnc34)CC2)cc1 | inconclusive: 0.398 µM [activator, full curve, poor fit] |
| O=C(NNC(=O)c1ccc(NC(=O)c2ccccc2)cc1)c1ccc(F)cc1 | inactive |
| N=c1n(CC(=O)c2ccc([N+](=O)[O-])cc2)c2ccccc2n1Cc1ccccc1Cl | inactive |
| CCOC(=S)SCC(=O)N1CCc2cc(OC)c(OC)cc2C1C1C(=O)CC(C)(C)CC1=O (configuration not stated) | inconclusive: 20 µM [activator, single point] |
| CCCc1cc(=O)oc2c(C)c(O[C@@H]3O[C@H](CO)[C@@H](O)[C@H](O)[C@H]3O)ccc12 | inactive |
| CCN(CC)c1ccc(C2N(C(=O)N3CCOCC3)CCN2S(=O)(=O)c2ccc(C)cc2)cc1 (configuration not stated) | inconclusive: 3.55 µM [activator, single point] |
| CC(NC(=S)Nc1ccccc1OC(F)F)C(C)(C)C (configuration not stated) | active: 11.2 µM |
| O=c1[nH][nH]c(=O)c2cc([N+](=O)[O-])ccc12 | inactive |
| CCOc1ccc(Cn2nnc(C(=O)NCc3ccc(OC)cc3)c2N)cc1 | inconclusive: 0.316 µM [activator, full curve, poor fit] |
| Oc1ccc(/C=N/Nc2ncc(Br)cn2)c(O)c1 | inconclusive: 14.1 µM [activator, single point] |
| CN(CC(=O)Nn1cnnc1)S(=O)(=O)c1ccc(Br)cc1 | active: 3.55 µM |
| CCc1nc(SCc2cccnc2)[nH]c(=O)c1C | inactive |
| N#Cc1cccc(C(=O)OCC(=O)NCc2ccco2)c1 | inconclusive: 2.51 µM [activator, single point] |
| CCCCNC(=S)NNC(=O)c1cc(C)on1 | inconclusive: 0.794 µM [activator, partial curve] |
| CCN(CC)c1ccc(NC(=O)CN2CCN(c3ccccc3F)CC2)cc1 | inconclusive: 3.98 µM [activator, single point] |
| Cc1scc(C(=O)NNC(=S)NC(C)c2ccccc2)c1C (configuration not stated) | inconclusive: 10 µM [activator, partial curve] |
| Cc1cc(=O)oc2cc(OCC(=O)OCC(=O)Nc3ccc4ccccc4c3)ccc12 | inconclusive: 4.47 µM [activator, single point] |
| O=C(CSc1nnc(CNC(=O)c2cccs2)o1)Nc1ccc(Cl)cc1 | inconclusive: 2.82 µM [activator, full curve] |

| SMILES | Potency |
| --- | --- |
| Cc1ccc(C(=O)N/C(=C\c2ccc(-c3cc(Cl)ccc3Cl)o2)C(=O)NCc2cccnc2)cc1 | inactive |
| CCc1nnc(NC(=O)CSc2ccc(-c3nc4ccccc4[nH]3)cn2)s1 | inactive |
| COc1cc(C(=O)NC(=S)N(CCc2ccccc2)CCc2ccccc2)cc(OC)c1OC | inconclusive: 11.2 µM [activator, partial curve] |
| COc1cccc2c(SCC(=O)N/N=C/c3ccc(O)cc3O)cc(C)nc12 | inconclusive: 2 µM [activator, full curve, poor fit] |
| Cc1ccc(CNC(=O)C2CCCN(S(=O)(=O)c3cccc4nonc34)C2)cc1 (configuration not stated) | inactive |
| CC(=O)c1ccc(NC(=O)c2sc3nc(C)c(C)c(C)c3c2N)cc1 | inactive |
| Cc1cccn2cc(CCNC(=O)c3ccco3)nc12 | inconclusive: 20 µM [activator, partial curve, poor fit] |
| COc1ccc(-c2csc(-c3ccc(O)cc3)n2)cc1 | inactive |
| O=C(CCNC(=O)OCc1ccccc1)NC1CCCCC1 | inactive |
| COc1ccc2cc3c(N)nn(C(=O)c4ccccc4Cl)c3nc2c1 | inactive |
| N=C1S/C(=C\c2ccco2)C(=O)N1c1ccc2c(c1)OCO2 | inactive |
| COc1cccc2cc(C(=O)NCc3ccccc3)c(=N)oc12 | inconclusive: 3.55 µM [activator, single point] |
| COc1cccc(NC(=O)CSc2nc3ccccc3c(=O)n2Cc2cccs2)c1 | inconclusive: 7.94 µM [activator, partial curve, poor fit] |
| COc1ccc(NC(=O)CSc2nnc(Cc3cccn3C)n2-c2ccc(F)cc2)cc1 | inactive |
| CC(NS(=O)(=O)c1ccc(Br)cc1)C(=O)NC1CCCCCC1 (configuration not stated) | inconclusive: 15.8 µM [activator, single point] |
| CCOc1ccc(NC(=NCc2ccc3c(c2)OCO3)SC2CC(=O)N(c3ccc(OCC)cc3)C2=O)cc1 (configuration not stated) | inconclusive: 10 µM [activator, partial curve] |
| Cc1noc2ncnc(Sc3ccc(Br)cc3)c12 | inactive |
| O=C(CCc1nnc2ccc(NCc3ccc(F)cc3)nn12)N1CCC2(CC1)OCCO2 | inconclusive: 11.2 µM [activator, partial curve] |
| COC(=O)C1CCN(C(=O)C2CCC(=O)N(CCc3cccc(F)c3)C2)CC1 (configuration not stated) | inconclusive: 3.98 µM [activator, single point] |
| O=C(NCC(c1cccs1)N1CCOCC1)c1cccnc1 (configuration not stated) | inactive |
| O=S(=O)(c1ccccc1)c1nc(-c2ccc(F)cc2)oc1NCC1CCCO1 (configuration not stated) | inactive |
| O=C(O[C@@H]1OC2COC(=O)c3cc(O)c(O)c(O)c3-c3c(cc(O)c(O)c3O)C(=O)O[C@@H]([C@H]1O)[C@@H]2O)c1cc(O)c(O)c(O)c1 | active: 12.6 µM |
| Cc1ccc([N+](=O)[O-])c(OCC(=O)OCC(=O)c2ccccc2)c1 | inactive |

Copied from the list:
For Potency, COc1cc(C(=O)NC(=S)N(CCc2ccccc2)CCc2ccccc2)cc(OC)c1OC is entered as inconclusive: 11.2 µM [activator, partial curve]
For Potency, CCOC(=O)c1[nH]cnc1C(=O)N1CCN(C(=O)OC(C)(C)C)CC1 is entered as inconclusive: 3.55 µM [activator, single point]
